{"source": "PubChem BioAssay AID1259405 – NCATS | 2018", "assay": "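Knock-downs that lift recombinant protein yield in hamster ovary cells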 (primary screen)", "system": "Chinese hamster CHO-K1 ovary cells with stable secreted eGFP expression", "reagent": "single siRNA against mouse genes, 0.8 pmol siRNA per well (2 µl of 400 nM stock)", "duration": "3 days", "read-out": "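Per-well intracellular GFP measured by laser scanning cytometry, plus viability from ATP luminescence, each relative to plate median of non-targeting control wells, in %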", "direction": "GFP, % of control: higher = more GFP per well, higher productivity; viability (ATP), % of control: higher = more viable cells (more ATP)", "rule for the call": "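a knock-down is called active if GFP reaches 120% or more of non-targeting control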", "note": "Here is an unselected part of about 50,000 reagents. Of all reagents, about 4,000 (8%) are marked active. 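Mouse siRNA library applied to hamster cells; one well for each siRNA.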 Reagents against one gene are numbered here."}
{"target gene": "P2ry12", "reagent": 1, "GFP, % of control": 83.9, "viability (ATP), % of control": 68.4, "activity call": "inactive"}
{"target gene": "P2ry12", "reagent": 2, "GFP, % of control": 67, "viability (ATP), % of control": 71.5, "activity call": "inactive"}
{"target gene": "P2ry12", "reagent": 3, "GFP, % of control": 118, "viability (ATP), % of control": 86, "activity call": "inactive"}
{"target gene": "Sirt5", "reagent": 1, "GFP, % of control": 74.5, "viability (ATP), % of control": 77.2, "activity call": "inactive"}
{"target gene": "Sirt5", "reagent": 2, "GFP, % of control": 18.1, "viability (ATP), % of control": 43, "activity call": "inactive"}
{"target gene": "Nsmf", "reagent": 1, "GFP, % of control": 47.2, "viability (ATP), % of control": 63.4, "activity call": "inactive"}
{"target gene": "Nsmf", "reagent": 2, "GFP, % of control": 93.5, "viability (ATP), % of control": 71, "activity call": "inactive"}
{"target gene": "Nsmf", "reagent": 3, "GFP, % of control": 123, "viability (ATP), % of control": 62, "activity call": "active"}
{"target gene": "Iqsec2", "reagent": 1, "GFP, % of control": 82.4, "viability (ATP), % of control": 61.6, "activity call": "inactive"}
{"target gene": "Iqsec2", "reagent": 2, "GFP, % of control": 71.8, "viability (ATP), % of control": 80.2, "activity call": "inactive"}
{"target gene": "Iqsec2", "reagent": 3, "GFP, % of control": 49.3, "viability (ATP), % of control": 53, "activity call": "inactive"}
{"target gene": "Polq", "reagent": 1, "GFP, % of control": 103, "viability (ATP), % of control": 64.1, "activity call": "inactive"}
{"target gene": "Polq", "reagent": 2, "GFP, % of control": 128, "viability (ATP), % of control": 97.8, "activity call": "active"}
{"target gene": "Polq", "reagent": 3, "GFP, % of control": 92.8, "viability (ATP), % of control": 98.9, "activity call": "inactive"}
{"target gene": "Eps15l1", "reagent": 1, "GFP, % of control": 141, "viability (ATP), % of control": 109, "activity call": "active"}
{"target gene": "Eps15l1", "reagent": 2, "GFP, % of control": 83.2, "viability (ATP), % of control": 95.8, "activity call": "inactive"}
{"target gene": "Eps15l1", "reagent": 3, "GFP, % of control": 74.3, "viability (ATP), % of control": 80.6, "activity call": "inactive"}
{"target gene": "Pgap3", "reagent": 1, "GFP, % of control": 62.7, "viability (ATP), % of control": 30.5, "activity call": "inactive"}
{"target gene": "Pgap3", "reagent": 2, "GFP, % of control": 91.4, "viability (ATP), % of control": 77.9, "activity call": "inactive"}
{"target gene": "Pgap3", "reagent": 3, "GFP, % of control": 77.7, "viability (ATP), % of control": 110, "activity call": "inactive"}
{"target gene": "Or4a72", "reagent": 1, "GFP, % of control": 100, "viability (ATP), % of control": 117, "activity call": "inactive"}
{"target gene": "Or4a72", "reagent": 2, "GFP, % of control": 48.7, "viability (ATP), % of control": 82.6, "activity call": "inactive"}
{"target gene": "Or4a72", "reagent": 3, "GFP, % of control": 60.1, "viability (ATP), % of control": 112, "activity call": "inactive"}
{"target gene": "Mier3", "reagent": 1, "GFP, % of control": 90.8, "viability (ATP), % of control": 50.4, "activity call": "inactive"}
{"target gene": "Mier3", "reagent": 2, "GFP, % of control": 105, "viability (ATP), % of control": 75.4, "activity call": "inactive"}
{"target gene": "Mier3", "reagent": 3, "GFP, % of control": 106, "viability (ATP), % of control": 102, "activity call": "inactive"}
{"target gene": "Vmn1r73", "reagent": 1, "GFP, % of control": 56.8, "viability (ATP), % of control": 42.1, "activity call": "inactive"}
{"target gene": "Vmn1r73", "reagent": 2, "GFP, % of control": 59.5, "viability (ATP), % of control": 48.1, "activity call": "inactive"}
{"target gene": "Vmn1r73", "reagent": 3, "GFP, % of control": 43.7, "viability (ATP), % of control": 48.5, "activity call": "inactive"}
{"target gene": "Ndufaf4", "reagent": 1, "GFP, % of control": 89.4, "viability (ATP), % of control": 88.6, "activity call": "inactive"}
{"target gene": "Ndufaf4", "reagent": 2, "GFP, % of control": 102, "viability (ATP), % of control": 108, "activity call": "inactive"}
{"target gene": "Ndufaf4", "reagent": 3, "GFP, % of control": 32.9, "viability (ATP), % of control": 11.5, "activity call": "inactive"}
{"target gene": "Or51ac3", "reagent": 1, "GFP, % of control": 29.6, "viability (ATP), % of control": 45.8, "activity call": "inactive"}
{"target gene": "Or51ac3", "reagent": 2, "GFP, % of control": 119, "viability (ATP), % of control": 96.8, "activity call": "inactive"}
{"target gene": "Or51ac3", "reagent": 3, "GFP, % of control": 72.1, "viability (ATP), % of control": 88.1, "activity call": "inactive"}
{"target gene": "Psma6", "reagent": 1, "GFP, % of control": 9.51, "viability (ATP), % of control": 4.21, "activity call": "inactive"}
{"target gene": "Psma6", "reagent": 2, "GFP, % of control": 77.5, "viability (ATP), % of control": 60.6, "activity call": "inactive"}
{"target gene": "Psma6", "reagent": 3, "GFP, % of control": 10.9, "viability (ATP), % of control": 3.27, "activity call": "inactive"}
{"target gene": "C1qtnf1", "reagent": 1, "GFP, % of control": 41.4, "viability (ATP), % of control": 44.3, "activity call": "inactive"}
{"target gene": "C1qtnf1", "reagent": 2, "GFP, % of control": 80.9, "viability (ATP), % of control": 82.8, "activity call": "inactive"}
{"target gene": "C1qtnf1", "reagent": 3, "GFP, % of control": 58.5, "viability (ATP), % of control": 73.2, "activity call": "inactive"}

Ordered by “GFP, % of control” (high to low): 2 of the entries above.
{"target gene": "Eps15l1", "reagent": 2, "GFP, % of control": 83.2, "viability (ATP), % of control": 95.8, "activity call": "inactive"}
{"target gene": "Eps15l1", "reagent": 3, "GFP, % of control": 74.3, "viability (ATP), % of control": 80.6, "activity call": "inactive"}
